The record followed here is patent publication US20260248128A1 (Solasta Bio Limited, priority 2021, published 2026).

A short description of data set [1]: general procedure: Fmoc solid-phase peptide synthesis; H-Rink Amide ChemMatrix; DIC/Oxyma; HATU/DIPEA for Fmoc-(NMe)Ala-OH and following residue. Particulars: whole synthesis, scale of the general procedure 0.1 mmol, 0.2 mmol or 0.5 mmol.
Data set [2] can be described thus: general procedure: Fmoc solid-phase peptide synthesis; H-Rink Amide ChemMatrix; Tentagel S RAM (0.22 mmol/g); Rink Amide ProTide (0.19 mmol/g); DIC/Oxyma; HATU/DIPEA for Fmoc-(NMe)Ala-OH and following residue. Particulars: whole synthesis, scale of the general procedure 0.1 mmol, 0.2 mmol or 0.5 mmol.

Take Hy-SDSKNT[n-me-A]LWFGPRL-[nh2]: in data set [1] (overall), the isolated yield came to 3%. The “final purity (method not given)” value in data set [1] was determined as 90%.
Consider SDSKNT[Peptoid-Phe]LWFGPRL-[NH2], for which the isolated yield in data set [2] (overall) was 5%. Also, the “final purity (method not given)” value in data set [2] came out at 93%.
